Molecules are shown by their SMILES. About 15 (0.7%) of roughly 2,200 compounds were called active.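 Rule for the calls: active = fitted half-maximal concentration for loss of luminescence signal no more than a set limit of log units above the top tested concentration; inconclusive = flat fit with 30 to 70% signal loss, or invalid fit; inactive = half-maximal concentration above that set limit.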 This is one part of the list.

The test is described as follows: inhibitors of ADP-Glo detection reagents, dose response, artefact control for GSK3beta inhibitor project, biochemical, luminescence, cell-free, homogeneous (AID 434947).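 Note: kinase-free counter screen of ADP-Glo detection reagents for GSK3beta hits.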 The following applies: 5 uM ADP. For orientation: ADP-Glo turns the ADP formed in a reaction into a luminescent signal.
`O=C(CCC1CCN(C(=O)c2cc(C(F)(F)F)ccc2Cl)CC1)NC1CC1`: the EC50 (commonly the concentration at which the effect is half-maximal) is inactive: > 30 µM. Consider `CCn1nc(NC(=O)C2CCCO2)c2cc3cc(C)ccc3nc21` (stereo not given), for which the EC50 was inactive: > 30 µM.

Regarding `c1cncc(-c2nc(NCc3cccs3)c3ccccc3n2)c1`, the EC50 was inactive: > 30 µM.

With `COc1cccc2cc(C(=O)N(C)C)c(=O)oc12`, the EC50 is inactive: > 30 µM. As for `CCN(CC)C(=O)Cn1cc(C(=O)C(=O)Nc2ccc3c(c2)OCCO3)c2ccccc21`, the EC50 is inactive: > 30 µM. As for `O=Cc1cn(-c2ccccc2)nc1-c1ccc(F)cc1`, the figure is inactive: > 30 µM; as for `Nc1ncnc(N(c2ccccc2)C2CCCCC2)c1[N+](=O)[O-]`, inactive: > 30 µM. Consider `CC(C)c1ccc(/C=N/NC(=O)c2nnn(-c3nonc3N)c2CN2CCOCC2)cc1`, for which the EC50 is inactive: > 30 µM. As for `COc1ccc(N2CCN(c3cc(C)nc4ccc(OC)cc34)CC2)cc1`, the figure is inactive: > 30 µM; as for `O=C(COc1ccc(S(=O)(=O)N2CCCC2)cc1Cl)Nc1ccc2c(c1)OCO2`, inactive: > 30 µM. For `CC(=O)Nc1ncc2c(n1)CC(c1ccco1)CC2=O` (stereo not given), the EC50 is inactive: > 30 µM.

Turning to `O=c1cc(-c2ccccc2Cl)oc2cc(O)cc(O)c12`, the EC50 is inactive: > 30 µM. As for `CNc1nc(N)c([N+](=O)[O-])c(NCC2CCCO2)n1` (stereo not given), the figure is inactive: > 30 µM; as for `COc1cc(OC)c2c(-c3ccccc3)cc(=O)oc2c1`, inactive: > 30 µM. Consider `CC(C)CC(=O)Nc1ncc([N+](=O)[O-])s1`, for which the EC50 is inactive: > 30 µM. `COc1ccc(OCCN(C)Cc2ccccc2)cc1`: the EC50 was inactive: > 30 µM. For the compound `O=c1oc2cc(O)ccc2cc1-c1ccccc1`, the EC50 is inactive: > 30 µM. As for `O=S(=O)(c1ccc(Br)cc1)N1CCN(c2cc(-c3ccccc3)nc3ncnn23)CC1`, the EC50 is inactive: > 30 µM. On to `COc1ccc2c(c1)cc1c(=O)n(CC(=O)NCCCN3CCOCC3)nc(C)n12`, for which the EC50 was inactive: > 30 µM. As for `CCCCC(=O)Nc1nc2c(OC)cc([N+](=O)[O-])cc2s1`, the figure is inactive: > 30 µM; as for `Cc1ccc(C2C3=C(CC(C)(C)CC3=O)Nc3n[nH]c(C)c32)cc1` (stereo not given), inactive: > 30 µM; as for `N#Cc1c(Cl)nc(-c2cccnc2)nc1-c1ccccc1`, inactive: > 30 µM. To `COc1cccc(/C=C2/Sc3ccc(C(=O)NCCN4CCCC4)cc3NC2=O)c1` belongs inactive: > 30 µM; to `NCCCNc1nc(N)c([N+](=O)[O-])c(NC2CCCCC2)n1`, inactive: > 30 µM; to `CCc1nn(CC(=O)NCCC(C)C)c(=O)c2cc3c(OC)cccc3n12`, inactive: > 30 µM. For `CC1(C)CC(=O)C2=C(C1)Nc1ccccc1NC2c1cccs1` (stereo not given), the EC50 was inactive: > 30 µM.

On to `COc1cccc2cc(C(=O)NCc3ccc(C)cc3)c(=O)oc12`, for which the EC50 was inactive: > 30 µM. Consider `O=C(CCSCCc1ccccn1)Nc1cc(F)ccc1F`, for which the EC50 is inactive: > 30 µM. For the compound `C/C(CC(=O)Nc1ccc2c(c1)OCO2)=N\NC(=O)c1ccc(N)cc1`, the EC50 is inactive: > 30 µM. As for `O=C(O)c1ccccc1NCc1cccnc1`, the figure is inactive: > 30 µM; as for `CCOc1cc(C2C(C(=O)N3CCCCC3)=C(C)NC3=C2C(=O)CC(C)(C)C3)ccc1O` (stereo not given), inactive: > 30 µM; as for `Cc1ccc(S(=O)(=O)CC(=O)Nc2ncc([N+](=O)[O-])s2)cc1`, inactive: > 30 µM. To `CN(C)/C=C/C(=O)c1cnc(-c2cccc(Cl)c2)s1` belongs inactive: > 30 µM; to `CCn1c(SCc2c(F)cccc2Cl)nnc1-c1ccco1`, inactive: > 30 µM. As for `COc1ccc(COC(=O)c2cccc(S(=O)(=O)N3CCN(C(C)=O)CC3)c2)cc1`, the figure is inactive: > 30 µM; as for `O=Cc1ccc(Oc2nc(Cl)ncc2F)cc1`, inactive: > 30 µM.

Regarding `N#Cc1c(-c2ccccc2)nc(SCC(=O)Nc2nnc(C(F)(F)F)s2)[nH]c1=O`, the EC50 is inactive: > 30 µM. To `CCN1CCN(c2cc(C)c3cc(NC(=O)c4cccc(OC)c4)ccc3n2)CC1` belongs inactive: > 30 µM; to `COc1cccc(/C=C2/Sc3ccc(C(=O)NCCN4CCCCCC4)cc3NC2=O)c1`, inactive: > 30 µM. As for `O=[N+]([O-])c1c(-c2cn[nH]c2)n[nH]c1-c1cn[nH]c1`, the figure is inactive: > 30 µM. As for `COc1cccc(N=Nc2c(N)[nH][nH]c2=O)c1`, the figure is inactive: > 30 µM; as for `Cc1ccc(NC(=O)NCCCN2CCCC2=O)cc1C`, inactive: > 30 µM; as for `Clc1cccc(Nc2nc(-c3ccncc3)nc3ccccc23)c1`, inactive: > 30 µM. For the compound `Cc1cccc(COc2ccc(/C=C3/C(=O)N(C)C(=S)N3C)cc2)c1`, the EC50 is inactive: > 30 µM. In the case of `C=C(Cl)COc1ccc2c(CCCC)cc(=O)oc2c1`, the EC50 was inactive: > 30 µM. To `Cc1cccc(Nc2nc(N)c([N+](=O)[O-])c(NCc3ccco3)n2)c1` belongs inactive: > 30 µM; to `O=C(Nc1cccc(NC(=O)c2ccc3c(c2)OCO3)c1)c1ccccc1`, inactive: > 30 µM. For the compound `Cc1ccc2c(c1)N(C(=O)CCC(=O)NCc1ccccc1)CC(C)O2` (stereo not given), the EC50 was inactive: > 30 µM. Turning to `O=C1CCCC2=C1C(c1cccs1)n1nc(SCc3ccccc3)nc1N2` (stereo not given), the EC50 was inactive: > 30 µM. To `COC(=O)CSc1ncnc2c1sc1nc(N3CCOCC3)c3c(c12)CCCC3` belongs inactive: > 30 µM.

Regarding `CCCn1nc(NC(=O)c2cccs2)c2cc3cc(C)ccc3nc21`, the EC50 was inactive: > 30 µM. As for `COc1ccc(CN(CC(=O)NCc2ccccc2)C(=O)CCC(=O)Nc2ccccn2)cc1`, the figure is inactive: > 30 µM; as for `CC1(C)CC(=O)C=C(Nc2cccc(Cl)c2Cl)C1`, inactive: > 30 µM. As for `O=[N+]([O-])c1cc(Cl)ccc1N1CCCC1`, the figure is inactive: > 30 µM; as for `CCCc1cc(=O)oc2cc(C)c(CN3CCCC3)c(O)c12`, inactive: > 30 µM; as for `COc1ccc(C(=O)c2coc3ccc(O)c(CN4CCCCC4)c23)cc1`, inactive: > 30 µM.

Turning to `CCCNc1nc(N)nc(-c2cc(Cl)ccc2OC)n1`, the EC50 was inactive: > 30 µM.

Consider `Cc1ccccc1CSc1nnc([C@@H]2CCCN2)o1`, for which the EC50 was inactive: > 30 µM.

As for `O=C(O)c1cc(C2CC2)nc2ccccc12`, the EC50 is inactive: > 30 µM.

As to `NS(=O)(=O)c1cc(C(=O)N=Nc2c(O)[nH]c3ccccc23)ccc1Cl`, the EC50 was inactive: > 30 µM.

For the origin of these results see PubChem BioAssay AID434947 (Broad Institute, 2010).
